From publication PMC8092218, “NirA Is an Alternative Nitrite Reductase from Pseudomonas aeruginosa with Potential as an Antivirulence Target” (mBio, 2021)
Results are given in words; binding and its absence hold for the method and conditions named.

Molecular target: PA4130 (NirA), ammonia:ferredoxin nitrite reductase from Pseudomonas aeruginosa (Pseudomonas aeruginosa PAO1) (UniProt Q9HWQ1)
Experiment: SEC; 16/600 Superdex 200 pg column, eluted with 50 mM Tris, 150 mM NaCl, pH 7.5; sample after IMAC and chitin column; both purified

B1: PA4130 (NirA), ammonia:ferredoxin nitrite reductase from Pseudomonas aeruginosa (enzyme, UniProt Q9HWQ1 1-557)
chain: MYQYDEYDQALVSERVAQFRDQIARRLDGELSEEEFLPLRLQNGLYLQKHAYMLRVAIPYGTLSAPQLRALAHVARHYDRGYGHFTTRQNIQFNWIELEQVGDILEHLAGAQMHAIQTSGNCVRNITTEAFAGVAADEWTDPRPLAEILRQWSTVNPEFLFLPRKFKIALSSAVEDRAAVQMHDIGLYLYRHPDAGELRLRVLVGGGLGRTPMLGQVIRDDLPWQHLLSYVEAILRVYNRYGRRDNKYKARIKILVKALGIEAFAREVEEEWQHLRDGPAQLTAEECQRVAERFVLPRYLPPADGELAYGSARAADPAFARWASRNVQAHKVPGYASVVLSTKPGASAPPGDVTAEQMERVADWAERYGFGEIRVAHEQNLVLPDVRLENLHALWREACAAGLGTPNQGLLSDIIACPGGDYCALANAKSIPIAQGIQQRFEDLDHLHDIGELSLNISGCMNACGHHHIGNIGILGVDKSGSEWYQVTLGGAQGKDSALGKVIGPSFSAAEVPAVIERIVETFTDLRVGPERFIDTFNRVGLEPFKARVYARMEEPA
Q: With B1 as the binder, how does the binding read?
A: no binding
